Results reported in the supplement of paper PMC4604168 (melanoma cell lines).
This is one part of the list. Repeats are few or missing, and single values can be far off.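 Cells were imaged in 1,536-well plates, and nuclei stained with an antibody against cleaved PARP were counted against all DNA-stained nuclei to give the apoptosis fraction. Screening doses were chosen to leave most cells alive, and resting and induced cleaved-PARP levels differ strongly between cell lines.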

system: COLO792; assay: cleaved PARP positive nuclei fraction relative to DMSO control; melanoma cells; higher = more apoptosis; conditions: library dose: low library concentration; 72 h

Structure (SMILES)	cleaved PARP positive nuclei fraction
Cn1cncc1[C@@](N)(c1ccc(Cl)cc1)c1ccc2c(c1)c(-c1cccc(Cl)c1)cc(=O)n2C [tipifarnib] + COc1cc2ncnc(Nc3ccc(Oc4ccccc4)cc3)c2cc1OC [SrcI1] (first compound 0.01 µM, partner dose 2 µM)	114%
C#Cc1cccc(Nc2ncnc3cc(OCCOC)c(OCCOC)cc23)c1 [erlotinib] + COc1cc2ncnc(Nc3ccc(Oc4ccccc4)cc3)c2cc1OC [SrcI1] (first compound 0.8 µM, partner dose 2 µM)	75.5%
Nc1cccc2c1CN(C1CCC(=O)NC1=O)C2=O (stereo not drawn) [lenalidomide] + Cn1cc(/C=C2\C(=O)Nc3cccnc32)c2ccccc21 [GW441756] (first compound 1 µM, partner dose 0.4 µM)	147%
Cc1nc(Nc2ncc(C(=O)Nc3c(C)cccc3Cl)s2)cc(N2CCN(CCO)CC2)n1 [dasatanib] + c1cc(-c2cnn3cc(-c4ccc(OCCN5CCCCC5)cc4)cnc23)ccn1 [Dorsomorphin] (first compound 0.004 µM, partner dose 0.4 µM)	206%
Cn1cncc1[C@@](N)(c1ccc(Cl)cc1)c1ccc2c(c1)c(-c1cccc(Cl)c1)cc(=O)n2C [tipifarnib] + O=C(O)C(=O)Nc1sc2c(c1C(=O)O)CCNC2 [TCS401] (first compound 0.01 µM, partner dose 1.66667 µM)	93%
Cn1c(Nc2ccc(C(F)(F)F)cc2)nc2cc(Oc3ccnc(-c4ncc(C(F)(F)F)[nH]4)c3)ccc21 + O=C(Nc1ccccc1)c1cc([N+](=O)[O-])ccc1Cl [GW9662] (first compound 0.08 µM, partner dose 2 µM)	265%
Cn1cncc1[C@@](N)(c1ccc(Cl)cc1)c1ccc2c(c1)c(-c1cccc(Cl)c1)cc(=O)n2C [tipifarnib] + Oc1nc(-c2ccc(C(F)(F)F)cc2)nc2c1CSCC2 [XAV939] (first compound 0.01 µM, partner dose 2 µM)	72.5%
Cn1nnc2c(C(N)=O)ncn2c1=O [temozolomide] + COc1ccc2c(c1)CCC1C2CCC2(C)C(NCCCCCCN3C(=O)C=CC3=O)CCC12 [U73122] (first compound 2 µM, partner dose 0.4 µM)	96.4%

Fetched one by one from above (two):
Structure (SMILES)	cleaved PARP positive nuclei fraction
Cn1nnc2c(C(N)=O)ncn2c1=O [temozolomide] + COc1ccc2c(c1)CCC1C2CCC2(C)C(NCCCCCCN3C(=O)C=CC3=O)CCC12 [U73122] (first compound 2 µM, partner dose 0.4 µM)	96.4%
Cn1cncc1[C@@](N)(c1ccc(Cl)cc1)c1ccc2c(c1)c(-c1cccc(Cl)c1)cc(=O)n2C [tipifarnib] + O=C(O)C(=O)Nc1sc2c(c1C(=O)O)CCNC2 [TCS401] (first compound 0.01 µM, partner dose 1.66667 µM)	93%

system: COLO800; assay: as above; conditions: library dose: low library concentration; 72 h

Structure (SMILES)	cleaved PARP positive nuclei fraction
OCCn1cc(-c2cnc3nnn(Cc4ccc5ncccc5c4)c3n2)cn1 + Oc1cc(-c2nc(-c3ccccc3)[nH]c2-c2ccncc2)ccc1Cl [L779450] (first compound 1 µM, partner dose 0.2 µM)	88.4%
CO[C@@H]1[C@H](N(C)C(=O)c2ccccc2)C[C@H]2O[C@]1(C)n1c3ccccc3c3c4c(c5c6ccccc6n2c5c31)C(=O)NC4 [Midostaurin] + O=C(Nc1ccccc1)c1cc([N+](=O)[O-])ccc1Cl [GW9662] (first compound 0.08 µM, partner dose 2 µM)	63%
CC1(C)NC(=O)N(c2ccc([N+](=O)[O-])c(C(F)(F)F)c2)C1=O [nilutamide] + COC(=O)c1sccc1S(=O)(=O)Nc1ccc(Nc2ccccc2)cc1OC [GSK0660] (first compound 1 µM, partner dose 1 µM)	98.4%
Cc1nc(Nc2ncc(C(=O)Nc3c(C)cccc3Cl)s2)cc(N2CCN(CCO)CC2)n1 [dasatanib] + Cc1cc([N+](=O)[O-])ccc1NS(=O)(=O)c1cc(Cl)ccc1Cl [FH535] (first compound 0.004 µM, partner dose 1 µM)	165%
C[C@@H]1CCN(C(=O)CC#N)C[C@@H]1N(C)c1ncnc2[nH]ccc12 + O=C(Nc1ccccc1)c1cc([N+](=O)[O-])ccc1Cl [GW9662] (first compound 1 µM, partner dose 2 µM)	142%
C=CCn1c(=O)c2cnc(Nc3ccc(N4CCN(C)CC4)cc3)nc2n1-c1cccc(C(C)(C)O)n1 + O=c1cc(-c2cccc3c2Sc2ccccc2S3)oc(N2CCOCC2)c1 [KU55933] (first compound 0.02 µM, partner dose 1 µM)	123%
Cc1ccc(NC(=O)c2cccc(N(C)C)c2)cc1NC(=O)c1ccc(O)cc1 + N#Cc1c(O)c2c(-c3ccc(-c4ccccc4O)cc3)csc2[nH]c1=O [A769662] (first compound 2 µM, partner dose 2 µM)	126%
Cc1cc(N2CCOCC2)cc2[nH]c(-c3c(NC[C@@H](O)c4cccc(Cl)c4)cc[nH]c3=O)nc12 + O=C(O)C(=O)Nc1sc2c(c1C(=O)O)CCNC2 [TCS401] (first compound 0.2 µM, partner dose 1.66667 µM)	196%
C=CCn1c(=O)c2cnc(Nc3ccc(N4CCN(C)CC4)cc3)nc2n1-c1cccc(C(C)(C)O)n1 + CCN(CC)CCCCNc1ncc2cc(-c3cc(OC)cc(OC)c3)c(NC(=O)NC(C)(C)C)nc2n1 [PD173074] (first compound 0.02 µM, partner dose 0.1 µM)	122%
Cc1cc(N2CCOCC2)cc2[nH]c(-c3c(NC[C@@H](O)c4cccc(Cl)c4)cc[nH]c3=O)nc12 + O=c1cc(-c2cccc3c2Sc2ccccc2S3)oc(N2CCOCC2)c1 [KU55933] (first compound 0.2 µM, partner dose 1 µM)	277%
C#Cc1cccc(Nc2ncnc3cc(OCCOC)c(OCCOC)cc23)c1 [erlotinib] + O=c1cc(-c2cccc3c2Sc2ccccc2S3)oc(N2CCOCC2)c1 [KU55933] (first compound 0.8 µM, partner dose 1 µM)	60%
Cn1c(Nc2ccc(C(F)(F)F)cc2)nc2cc(Oc3ccnc(-c4ncc(C(F)(F)F)[nH]4)c3)ccc21 + O=C1NC(=O)/C(=C/c2ccc(-c3ccc(F)cc3O)o2)S1 [AS252424] (first compound 0.08 µM, partner dose 1 µM)	157%
NC(=O)Nc1cc(-c2cccc(F)c2)sc1C(=O)N[C@H]1CCCNC1 + CCCCCCCCCCCC1=C(O)C(=O)C=C(O)C1=O [Embelin] (first compound 0.02 µM, partner dose 1.2 µM)	217%
C=CCn1c(=O)c2cnc(Nc3ccc(N4CCN(C)CC4)cc3)nc2n1-c1cccc(C(C)(C)O)n1 + COc1cc2ncnc(Nc3ccc(Oc4ccccc4)cc3)c2cc1OC [SrcI1] (first compound 0.02 µM, partner dose 2 µM)	87.4%
Cn1c(Nc2ccc(C(F)(F)F)cc2)nc2cc(Oc3ccnc(-c4ncc(C(F)(F)F)[nH]4)c3)ccc21 + N#Cc1c(O)c2c(-c3ccc(-c4ccccc4O)cc3)csc2[nH]c1=O [A769662] (first compound 0.08 µM, partner dose 2 µM)	246%
Cn1nnc2c(C(N)=O)ncn2c1=O [temozolomide] + COc1cc(N2CCC(N3CCN(C)CC3)CC2)ccc1Nc1ncc(Cl)c(Nc2ccccc2S(=O)(=O)C(C)C)n1 [NVP-TAE684] (first compound 2 µM, partner dose 0.08 µM)	143%
O=C(CCCCCCC(=O)Nc1ccccc1)NO [vorinostat] + COc1ccc(COc2ccc(Cc3cnc(N)nc3N)cc2OC)cc1 [GW2580] (first compound 0.08 µM, partner dose 1 µM)	84.1%
C#Cc1cccc(Nc2ncnc3cc(OCCOC)c(OCCOC)cc23)c1 [erlotinib] + Oc1cc(-c2nc(-c3ccccc3)[nH]c2-c2ccncc2)ccc1Cl [L779450] (first compound 0.8 µM, partner dose 0.2 µM)	20.6%
C#Cc1cccc(Nc2ncnc3cc(OCCOC)c(OCCOC)cc23)c1 [erlotinib] + N#Cc1c(O)c2c(-c3ccc(-c4ccccc4O)cc3)csc2[nH]c1=O [A769662] (first compound 0.8 µM, partner dose 2 µM)	37%
COCC[n+]1c2c(n(Cc3cnccn3)c1C)C(=O)c1ccccc1C2=O + COc1ccc(-c2ccc3c(N4CCOCC4)nc(N4C[C@@H](C)O[C@@H](C)C4)nc3n2)cc1CO [KU0063794] (first compound 0.0004 µM, partner dose 0.02 µM)	131%
COc1cc(Nc2ncc(F)c(Nc3ccc4c(n3)NC(=O)C(C)(C)O4)n2)cc(OC)c1OC [Tamatinib] + O=C1NC(=O)/C(=C/c2ccc(-c3ccc(F)cc3O)o2)S1 [AS252424] (first compound 0.4 µM, partner dose 1 µM)	97.2%
OCCn1cc(-c2cnc3nnn(Cc4ccc5ncccc5c4)c3n2)cn1 + Cc1cc([N+](=O)[O-])ccc1NS(=O)(=O)c1cc(Cl)ccc1Cl [FH535] (first compound 1 µM, partner dose 1 µM)	120%
Nc1cccc2c1CN(C1CCC(=O)NC1=O)C2=O (stereo not drawn) [lenalidomide] + CCN(CC)CCCCNc1ncc2cc(-c3cc(OC)cc(OC)c3)c(NC(=O)NC(C)(C)C)nc2n1 [PD173074] (first compound 1 µM, partner dose 0.1 µM)	94.2%
C[C@@H]1CCN(C(=O)CC#N)C[C@@H]1N(C)c1ncnc2[nH]ccc12 + O=C(O)C(=O)Nc1sc2c(c1C(=O)O)CCNC2 [TCS401] (first compound 1 µM, partner dose 1.66667 µM)	184%
OCCn1cc(-c2cnc3nnn(Cc4ccc5ncccc5c4)c3n2)cn1 + COc1ccc2c(c1)CCC1C2CCC2(C)C(NCCCCCCN3C(=O)C=CC3=O)CCC12 [U73122] (first compound 1 µM, partner dose 0.4 µM)	72.1%
